The other results are listed elsewhere or left out. Repeats in this data set agree poorly, so a single value says little.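 Human kidney-derived cells stably carry a construct in which eight TEAD-binding elements drive luciferase, measured by luminescence in a drug-repurposing library screen. A hit is any compound whose signal exceeds the plate mean by more than five robust Z scores.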
System: HEK293A TEAD-LUC reporter
Experiment: TEAD-luciferase reporter activity (YAP activation), robust Z score vs plate; higher = stronger YAP/TEAD activation
Settings: 24 h

With COc1ccc2cc(OCC3(C(=O)O)CN(C(=O)c4ccc(F)cc4)C3)ccc2c1 the TEAD-luciferase reporter activity (compound concentration: 200 nM) was inactive: -0.66, the TEAD-luciferase reporter activity (compound concentration: 2 uM) was inactive: -0.735 and the TEAD-luciferase reporter activity (compound concentration: 10 uM) was inactive: 1.63.

For N#Cc1c(N)[nH]c2ccc(Sc3ccccc3)cc12 [amphethinile], the TEAD-luciferase reporter activity (compound concentration: 200 nM) was inactive: -0.391, the TEAD-luciferase reporter activity (compound concentration: 2 uM) was inactive: 1.69 and the TEAD-luciferase reporter activity (compound concentration: 10 uM) was inactive: -1.25.

In the case of Cc1cccc(C(O)CNC(=O)C2CCN(C(=O)Cn3c(=O)sc4ccc(Cl)cc43)CC2)n1 (stereo not drawn), the TEAD-luciferase reporter activity (compound concentration: 200 nM) is reported as inactive: -1.42, the TEAD-luciferase reporter activity (compound concentration: 2 uM) is reported as inactive: 1.09 and the TEAD-luciferase reporter activity (compound concentration: 10 uM) is reported as inactive: -1.65.

For Cc1ccc(-c2ncccn2)c(C(=O)N2C[C@H](COc3ccc(F)cn3)CC[C@H]2C)c1 [Filorexant], the TEAD-luciferase reporter activity (compound concentration: 200 nM) was inactive: -0.994, the TEAD-luciferase reporter activity (compound concentration: 2 uM) was active: 6.51 and the TEAD-luciferase reporter activity (compound concentration: 10 uM) was inactive: 1.59.

COc1ccc(S(=O)(=O)N(CC(C)C)CC(O)[C@H](Cc2ccc(CNCCP(=O)(O)O)cc2)NC(=O)O[C@H]2CO[C@H]3OCC[C@H]32)cc1 (stereo partly drawn) was tested, and the TEAD-luciferase reporter activity (compound concentration: 200 nM) was inactive: 0.0902, the TEAD-luciferase reporter activity (compound concentration: 2 uM) was inactive: -1.23 and the TEAD-luciferase reporter activity (compound concentration: 10 uM) was inactive: 1.35.

CN(C)C(=O)c1cccc(COc2ccc(N3C(N)=NC(N)=NC3(C)C)cc2Cl)c1 [Triazinate] was tested, and the TEAD-luciferase reporter activity (compound concentration: 2 uM) was inactive: -0.628.

With CN(C)C(=O)c1cccc(COc2ccc(N3C(N)=NC(N)=NC3(C)C)cc2Cl)c1 the TEAD-luciferase reporter activity (compound concentration: 200 nM) was inactive: 1.9 and the TEAD-luciferase reporter activity (compound concentration: 10 uM) was inactive: -1.72.

With COc1ccc(CCN(C)CCCC(C#N)(c2cc(OC)c(OC)c(OC)c2)C(C)C)cc1OC (stereo not drawn) [gallopamil] the TEAD-luciferase reporter activity (compound concentration: 200 nM) was inactive: 0.984, the TEAD-luciferase reporter activity (compound concentration: 2 uM) was inactive: -1.17 and the TEAD-luciferase reporter activity (compound concentration: 10 uM) was inactive: -1.62.

For Cc1c(Cl)cccc1S(=O)(=O)N1CCC[C@H](C(=O)NC2CCCCC2)C1, the TEAD-luciferase reporter activity (compound concentration: 200 nM) was inactive: -1.65, the TEAD-luciferase reporter activity (compound concentration: 2 uM) was inactive: -1.68 and the TEAD-luciferase reporter activity (compound concentration: 10 uM) was inactive: -0.599.

In the case of O=C(Oc1ccccc1)c1ccc2ccccc2c1O, the TEAD-luciferase reporter activity (compound concentration: 200 nM) is reported as inactive: 2.16, the TEAD-luciferase reporter activity (compound concentration: 2 uM) is reported as inactive: -0.911 and the TEAD-luciferase reporter activity (compound concentration: 10 uM) is reported as inactive: 2.86.

With CCC[C@@H]1O[C@@H]2C[C@H]3[C@@H]4C[C@H](F)C5=CC(=O)CC[C@]5(C)[C@@]4(F)[C@@H](O)C[C@]3(C)[C@]2(SC)O1 the TEAD-luciferase reporter activity (compound concentration: 200 nM) was inactive: -0.336, the TEAD-luciferase reporter activity (compound concentration: 2 uM) was inactive: 0.815 and the TEAD-luciferase reporter activity (compound concentration: 10 uM) was inactive: 0.972.

CO/N=C(\C(=O)N[C@@H]1C(=O)N2C(C(=O)O)=C(Cn3nnc(C)n3)CS[C@H]12)c1csc(N)n1 [Cefteram pivoxil] was tested, and the TEAD-luciferase reporter activity (compound concentration: 200 nM) was inactive: 0.461, the TEAD-luciferase reporter activity (compound concentration: 2 uM) was inactive: 0.0106 and the TEAD-luciferase reporter activity (compound concentration: 10 uM) was inactive: 0.441.

In the case of Cc1cccc(Nc2cc(Cl)nc(SCC(=O)NCCO)n2)c1C [pirinixil], the TEAD-luciferase reporter activity (compound concentration: 200 nM) is reported as inactive: -1.44, the TEAD-luciferase reporter activity (compound concentration: 2 uM) is reported as inactive: -0.924 and the TEAD-luciferase reporter activity (compound concentration: 10 uM) is reported as inactive: 0.447.

In the case of O=C1CC2CCCC(C1)N2C(=O)c1ccc2c(c1)OCO2, the TEAD-luciferase reporter activity (compound concentration: 200 nM) is reported as inactive: 0.214 and the TEAD-luciferase reporter activity (compound concentration: 10 uM) is reported as inactive: -0.924.

With CC(=O)OCC(=O)[C@@]1(O)[C@H](OC(C)=O)C[C@H]2[C@@H]3CCC4=CC(=O)C=C[C@]4(C)[C@@]3(F)[C@@H](O)C[C@@]21C [triamcinolone acetate, Foamix] the TEAD-luciferase reporter activity (compound concentration: 200 nM) was inactive: 1.47 and the TEAD-luciferase reporter activity (compound concentration: 10 uM) was inactive: 3.5.

In the case of CC(=O)OCC(=O)[C@@]1(O)[C@H](OC(C)=O)C[C@H]2[C@@H]3CCC4=CC(=O)C=C[C@]4(C)[C@@]3(F)[C@@H](O)C[C@@]21C [triamcinolone acetate], the TEAD-luciferase reporter activity (compound concentration: 2 uM) is reported as inactive: -0.327.

In the case of CC(CN(C)C)CN1c2ccccc2Sc2ccc(C#N)cc21 (stereo not drawn) [Cyamemazine], the TEAD-luciferase reporter activity (compound concentration: 200 nM) is reported as inactive: -3.27, the TEAD-luciferase reporter activity (compound concentration: 2 uM) is reported as inactive: -0.532 and the TEAD-luciferase reporter activity (compound concentration: 10 uM) is reported as inactive: -0.375.

CC(C)C1O[C@@H]2C[NH2+][Pt-2]3([NH2+]C[C@H]2O1)[O]C(=O)CC(=O)[O]3 [Eptaplatin] was tested, and the TEAD-luciferase reporter activity (compound concentration: 200 nM) was inactive: -0.908, the TEAD-luciferase reporter activity (compound concentration: 2 uM) was inactive: -0.866 and the TEAD-luciferase reporter activity (compound concentration: 10 uM) was inactive: -1.72.

Cc1ccc(C(=O)c2cccn2C/C=C/c2cccc(OCC(=O)O)c2)cc1 was tested, and the TEAD-luciferase reporter activity (compound concentration: 200 nM) was inactive: -2.38, the TEAD-luciferase reporter activity (compound concentration: 2 uM) was inactive: -0.854 and the TEAD-luciferase reporter activity (compound concentration: 10 uM) was inactive: 0.879.

In the case of C=CC1=C(C)C2=NC1=Cc1c(C)c(CCC(=O)O)c3[n]1[Fe]([Cl])[n]1c(c(C)c(C=C)c1=C2)=CC1=NC(=C3)C(CCC(=O)O)=C1C [Hemin], the TEAD-luciferase reporter activity (compound concentration: 200 nM) is reported as inactive: 0.701, the TEAD-luciferase reporter activity (compound concentration: 2 uM) is reported as inactive: -0.335 and the TEAD-luciferase reporter activity (compound concentration: 10 uM) is reported as inactive: 1.67.

Cc1nccn1CCC(C(N)=O)(c1ccccc1)c1ccccc1 [imidafenacin] was tested, and the TEAD-luciferase reporter activity (compound concentration: 200 nM) was inactive: -1.68, the TEAD-luciferase reporter activity (compound concentration: 2 uM) was inactive: 0.454 and the TEAD-luciferase reporter activity (compound concentration: 10 uM) was inactive: -1.27.

With NC(=S)N/N=C/c1ccncc1 [2016-03-02: Perchlozone] the TEAD-luciferase reporter activity (compound concentration: 200 nM) was inactive: -1.33 and the TEAD-luciferase reporter activity (compound concentration: 10 uM) was active: 6.05.

NC(=S)N/N=C/c1ccncc1 [_:_2016-03-02: Perchlozone] was tested, and the TEAD-luciferase reporter activity (compound concentration: 2 uM) was inactive: -0.467.

For CN1CCC(n2[nH]c(-c3ccccc3)c(Cc3ccccc3)c2=O)CC1 [Benzpiperilone], the TEAD-luciferase reporter activity (compound concentration: 200 nM) was inactive: 1.73 and the TEAD-luciferase reporter activity (compound concentration: 10 uM) was inactive: 1.92.

CN1CCC(n2[nH]c(-c3ccccc3)c(Cc3ccccc3)c2=O)CC1 was tested, and the TEAD-luciferase reporter activity (compound concentration: 2 uM) was inactive: -2.2.

For COc1cccc(C(O)CN2CCN(c3ccccc3OC)CC2)c1 (stereo not drawn), the TEAD-luciferase reporter activity (compound concentration: 200 nM) was inactive: -1.43, the TEAD-luciferase reporter activity (compound concentration: 2 uM) was inactive: -1.89 and the TEAD-luciferase reporter activity (compound concentration: 10 uM) was inactive: 1.13.

With Cc1ccc(C#Cc2ccc(S(=O)(=O)N[C@H](Cc3c[nH]c4ccccc34)C(=O)O)s2)cc1 the TEAD-luciferase reporter activity (compound concentration: 200 nM) was inactive: 0.173, the TEAD-luciferase reporter activity (compound concentration: 2 uM) was inactive: 0.0308 and the TEAD-luciferase reporter activity (compound concentration: 10 uM) was inactive: 0.947.

In the case of O=C(O)c1ccc(CN(Cc2cccc(F)c2)c2ccc(OCc3ccc4ccccc4n3)cc2)cc1, the TEAD-luciferase reporter activity (compound concentration: 200 nM) is reported as inactive: -1.53, the TEAD-luciferase reporter activity (compound concentration: 2 uM) is reported as inactive: 0.0779 and the TEAD-luciferase reporter activity (compound concentration: 10 uM) is reported as inactive: 3.27.

COc1cc(CNC(=O)CCCC/C=C\C(C)C)ccc1O [zucapsaicin] was tested, and the TEAD-luciferase reporter activity (compound concentration: 200 nM) was inactive: 0.332 and the TEAD-luciferase reporter activity (compound concentration: 10 uM) was inactive: 0.474.

COc1cc(CNC(=O)CCCC/C=C\C(C)C)ccc1O [civamide] was tested, and the TEAD-luciferase reporter activity (compound concentration: 2 uM) was inactive: -1.25.

For C=CCNC(=O)N1CC(Oc2ccc(Cl)cc2)C1, the TEAD-luciferase reporter activity (compound concentration: 200 nM) was inactive: -1.36, the TEAD-luciferase reporter activity (compound concentration: 2 uM) was inactive: -0.248 and the TEAD-luciferase reporter activity (compound concentration: 10 uM) was inactive: -0.878.

With CCCCCCCCCCCCCCCC[N+](C)(C)C1CCCCC1O (stereo not drawn) the TEAD-luciferase reporter activity (compound concentration: 200 nM) was inactive: -0.252, the TEAD-luciferase reporter activity (compound concentration: 2 uM) was inactive: -1.43 and the TEAD-luciferase reporter activity (compound concentration: 10 uM) was inactive: 1.26.

For CCCC1(CC(=O)O)OCCc2c1[nH]c1ccccc21 (stereo not drawn) [prodolic acid], the TEAD-luciferase reporter activity (compound concentration: 200 nM) was inactive: -0.363, the TEAD-luciferase reporter activity (compound concentration: 2 uM) was inactive: -0.029 and the TEAD-luciferase reporter activity (compound concentration: 10 uM) was inactive: 1.86.

O=CN(O)CCCP(=O)([O-])O [fosmidomycin] was tested, and the TEAD-luciferase reporter activity (compound concentration: 200 nM) was inactive: -0.961, the TEAD-luciferase reporter activity (compound concentration: 2 uM) was inactive: -0.0393 and the TEAD-luciferase reporter activity (compound concentration: 10 uM) was inactive: -0.391.

With COc1ccc(N2CCN(c3cccc(C)c3)CC2)nn1 the TEAD-luciferase reporter activity (compound concentration: 200 nM) was inactive: 2.53 and the TEAD-luciferase reporter activity (compound concentration: 10 uM) was inactive: 1.04.

Reference: the supplement of paper PMC10735217
